The campaign covered roughly 390,000 compounds. About 610 (0.16%) were called active. Inconclusive means that the source gave no clear call. Such entries were picked first, then a sample of the others. The call rests on the fitted dose curve; in most records, active means well fitted inhibition curve with a large enough effect; inconclusive means small, poorly fitted or top-dose-only effect, or effect the other way, or another doubt; inactive means no such curve, though single readings can be large or run the other way. Where the call is inconclusive, the potency comes from a doubtful curve fit.
Assay: Nrf2 qHTS screen for inhibitors: counterscreen for cytotoxicity
Conditions: A549 ARE-Fluc cells, CellTiter-Fluor viability, 18-24 h; activity change, negative = cytotoxicity: at 46 µM (top of the series)
Summary of the method: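 A549 ARE-Fluc cells in 5% FBS OPTI-MEM, 5000 cells/well, rested 2 h then exposed to compounds in concentration-response for 18-24 h at 37 °C. Viability by CellTiter-Fluor fluorescence (Ex 405/Em 525) after 30 min; luciferase luminescence (BugLite, 15 min, RT) read afterwards.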
On the % scale 0 is the no-effect control and ±100 the full control effect; potency means the concentration at half of the fitted maximal effect.

Question: With `Cc1cc(C)cc(OCC(=O)N/N=C/c2ccco2)c1` as the molecule, how does the “activity change, negative = cytotoxicity” value read?
Answer: inactive: 0.876%

Question: For `CC(C)c1ccc(C(C)NCCS(=O)(=O)c2ccc(Cl)cc2)cc1` (configuration not stated), which “activity change, negative = cytotoxicity” value is on record?
Answer: inactive: 2.9%

Question: For `COc1cc2c(cc1OC)/C(=C/C(=O)c1ccc(NC(C)=O)cc1)NCC2`, which Potency is on record?
Answer: inconclusive: 16.4 µM [falling, partial curve]

Question: For `CCOc1ccccc1Oc1nc(C)nc2c1oc1ccccc12`, which Potency is on record?
Answer: inconclusive: 14.6 µM [falling, partial curve, poor fit]

Question: With `O=C(NCCCCCCCN1CCCCCCC1)C(C1CCCCC1)C1CCCCC1` as the molecule, how does the Potency read?
Answer: inconclusive: 18.4 µM [falling, partial curve, poor fit]

Question: Which “activity change, negative = cytotoxicity” value does the source give for `C/C(=N\NC(=O)c1cc(C)oc1C)c1ccc2ccccc2c1` here?
Answer: inactive: 1.32%

Question: Which Potency does the source give for `COCc1[nH]nc2c1C1(CCSCC1)C(C#N)=C(N)O2` here?
Answer: inconclusive: 29.1 µM [activator, partial curve, poor fit]

Question: With `COc1ccc(OCc2cc(C(=O)N(C)C3CCOCC3)no2)c2ccccc12` as the molecule, how does the Potency read?
Answer: inconclusive: 3.66 µM [activator, partial curve, poor fit]

Question: Which Potency does the source give for `O=C(CCNS(=O)(=O)c1ccc2nsnc2c1)N1CCN(c2ccncc2)CC1` here?
Answer: inconclusive: 23.1 µM [activator, partial curve, poor fit]

Question: With `Cc1ccccc1NC(=O)C(=Cc1ccc(C(=O)O)cc1)C(=O)Nc1ccccc1C` as the molecule, how does the Potency read?
Answer: inconclusive: 20.6 µM [falling, partial curve, poor fit]

Question: Which Potency does the source give for `CSc1ncc(Cl)c(C(=O)NCc2ccc3c(c2)OCO3)n1` here?
Answer: inconclusive: 18.4 µM [activator, partial curve, poor fit]

Question: For `O=C(N/N=C/c1ccccn1)c1[nH]c2ccc([N+](=O)[O-])cc2c1-c1ccccc1`, which Potency is on record?
Answer: inconclusive: 23.1 µM [falling, partial curve, poor fit]

Question: Which Potency does the source give for `CCc1ccc(NC(=O)C(C)OC(=O)c2ccc(NS(=O)(=O)c3ccc(C)c([N+](=O)[O-])c3)cc2)cc1` (configuration not stated) here?
Answer: inconclusive: 29.1 µM [falling, single point]

Question: Which “activity change, negative = cytotoxicity” value does the source give for `Cc1ccc(NC(=O)c2ccc3c(c2)C(=O)N(CC2CCCO2)C3=O)cc1C` (configuration not stated) here?
Answer: inactive: 1.52%

Question: For `O=c1/c(=C\c2ccc(O)cc2)sc2n1C(c1ccccc1)C(c1ccccc1)=NN=2` (configuration not stated), which Potency is on record?
Answer: inconclusive: 16.4 µM [falling, single point]

Question: Which Potency does the source give for `COc1cc(O)c(C(CC(=O)N2CCN(c3ccccc3)CC2)c2ccc(N(C)C)cc2)c(OC)c1` (configuration not stated) here?
Answer: inconclusive: 32.6 µM [falling, partial curve, poor fit]

Question: Which “activity change, negative = cytotoxicity” value does the source give for `O=C(O)c1cc(F)c(S(=O)(=O)N2CCN(S(=O)(=O)c3ccc4c(c3)OCCO4)CC2)cc1F` here?
Answer: inactive: -2.94%

Reference: PubChem BioAssay AID504648 (National Center for Advancing Translational Sciences (NCATS), 2011)
